## Percent effect of library compounds

Amino acid sequences for entries named in this document (tags omitted). Residues count along the entry.
UniProt Q8IDJ8, 1-583: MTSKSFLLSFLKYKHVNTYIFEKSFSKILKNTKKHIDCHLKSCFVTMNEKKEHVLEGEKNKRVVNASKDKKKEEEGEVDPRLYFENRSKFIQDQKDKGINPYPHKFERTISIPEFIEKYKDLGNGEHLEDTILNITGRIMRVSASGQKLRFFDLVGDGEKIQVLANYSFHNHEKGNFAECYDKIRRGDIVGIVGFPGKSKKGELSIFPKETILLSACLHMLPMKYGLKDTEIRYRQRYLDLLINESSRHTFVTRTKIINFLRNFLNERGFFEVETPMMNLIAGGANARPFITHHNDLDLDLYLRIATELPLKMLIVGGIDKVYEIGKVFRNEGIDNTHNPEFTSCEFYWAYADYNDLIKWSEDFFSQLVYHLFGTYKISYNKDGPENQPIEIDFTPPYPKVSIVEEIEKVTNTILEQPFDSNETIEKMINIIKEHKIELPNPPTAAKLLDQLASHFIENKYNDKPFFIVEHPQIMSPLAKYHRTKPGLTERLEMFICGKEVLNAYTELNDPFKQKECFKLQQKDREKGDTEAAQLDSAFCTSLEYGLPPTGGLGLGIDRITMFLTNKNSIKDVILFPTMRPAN
UniProt A4I591, 1-473: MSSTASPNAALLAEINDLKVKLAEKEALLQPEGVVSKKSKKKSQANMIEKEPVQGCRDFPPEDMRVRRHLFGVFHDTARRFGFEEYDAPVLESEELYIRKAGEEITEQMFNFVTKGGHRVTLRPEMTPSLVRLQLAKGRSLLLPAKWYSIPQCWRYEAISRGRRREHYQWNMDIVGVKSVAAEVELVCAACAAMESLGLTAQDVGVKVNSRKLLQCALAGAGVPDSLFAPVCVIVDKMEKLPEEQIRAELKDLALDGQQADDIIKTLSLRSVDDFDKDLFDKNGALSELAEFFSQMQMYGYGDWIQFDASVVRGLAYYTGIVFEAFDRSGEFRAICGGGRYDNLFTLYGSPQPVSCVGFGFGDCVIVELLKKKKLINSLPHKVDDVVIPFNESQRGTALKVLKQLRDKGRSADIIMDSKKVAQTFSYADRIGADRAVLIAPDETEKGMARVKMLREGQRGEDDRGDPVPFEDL

T. brucei: 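Whole-parasite assay of Trypanosoma brucei over 72 hours; the read-out is not stated. Concentration: 30 µM. Higher reads as stronger inhibition (inferred: compounds with an IC50 in retests scored well above the rest). Values scatter widely below zero; nearly all retest evidence comes from the higher of the two concentrations used. About 64,000 compounds were tested under these conditions; 1.5% (about 940) showed 50% or more at least once.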
PfKRS1: 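Enzyme assay of the cytosolic lysyl-tRNA synthetase in 384-well plates, read by luminescence. Target: Lysine-tRNA ligase, Plasmodium falciparum 3D7 (UniProt Q8IDJ8). Tested at 30 µM. Direction is inferred from only a few compounds that gave an IC50; most scored high, so higher reads as stronger inhibition. About 69,000 compounds were tested under these conditions; 0.071% (about 49) showed 50% or more at least once.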
LiHisRS: 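Enzyme assay of histidyl-tRNA synthetase; the read-out is not stated. Target: Histidine-tRNA ligase, Leishmania infantum (UniProt A4I591). Tested at 30 µM. The record gives no direction; compounds that gave an IC50 in retests scored well above the rest, so higher reads as stronger inhibition. The assay is labelled LdHisRS but filed under L. infantum. About 69,000 compounds were tested under these conditions; 0.6% (about 410) showed 50% or more at least once.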
Toxoplasma: 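Assay of Toxoplasma gondii numbers, read through their beta-galactosidase reporter with a colour substrate. Tested at 10 µM. The record gives no direction; the compounds picked for IC50 retests had high values, so higher reads as fewer parasites. Of about 67,000 compounds tested this way, about 260 (0.38%) reached 50% or more in at least one test.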

The filed quantity is “Percent Effect” (%).
The record does not define 0% and 100%; most values in the screen are far below 50% and negative numbers occur (in some assays of this library far below -100).
This is an unselected part of the compounds tested.
A dash means the value is not listed here; it may have been measured.

SMILES	T. brucei	PfKRS1	LiHisRS	Toxoplasma
COCc1noc(C2(c3ccc(F)cc3)CC2)n1	-129.2	-4.063	6.849	1.264
c1ccc2c(c1)CCN(c1ncnc3sc4c(c13)CCNC4)C2	11.83	2.819	15.05	1.787
CN1CCC(N(CCc2ccccc2)C(=O)c2ccc(C#N)cc2)CC1	-11.24	2.758	16.3	-63.61
CCCN1C[C@H]2CC[C@@H]1CN(C(=O)c1ccc(N(C)CCO)cc1)C2	-	2.186	16.67	-
CC(C)c1nc(C2CCCN2CCc2ccncc2)no1 (centres undefined)	-28.6	-8.196	5.479	-1.482
Cc1c[nH]nc1C1CCCN(C(=O)Cn2cccn2)C1 (centres undefined)	-32.06	0.3191	8.966	-22.35
CC(C)c1cc(NC(=O)CN2CCc3ccccc3C2)on1	37.24	1.472	-2.74	6.458
CCc1cc(=O)n(CC(=O)N2CCCC2)c(-c2cccc(F)c2)n1	-59.93	3.156	6.173	-12.45
COCCN1C(=O)C[C@H]2[C@H]1CCN2Cc1ccc(OC)cc1	-	0.5124	5.109	-
CCCc1nc(C)c(C(=O)NCCN2CCN(CC)CC2)s1	9.442	5.788	12.5	-1.78
COc1c(CNCc2ccccc2CN2CCOCC2)c(C)nn1C	-8.117	-1.143	5.333	0.2959
O=C(O)C1c2nc[nH]c2CCN1CC(c1ccccc1)c1ccccc1 (centres undefined)	-58.14	3.055	107.2	27.92
Cc1cc2cc(CNC3CCN(CC(=O)N(C)C)CC3)oc2cc1C	-33.92	3.627	22.86	17.66
Nc1nccnc1C(=O)N1CCN(CCOc2ccccc2)CC1	-28.8	-2.748	12.28	3.001
CN(C)c1ncnc2c1CCN(S(=O)(=O)c1cccc(Cl)c1Cl)C2	-47.5	5.645	11.43	-1.882
Cc1cnn(CCNCC(=O)N2CCN(c3ccccc3)CC2)c1	2.209	1.67	20	-11.37
[H][C@@]12CCN(S(=O)(=O)C3CC3)[C@]1([H])CCC(=O)N2CC1CC1	-19.61	-	-	22.16
COc1cc(CNC2CCCN(c3ncccn3)C2)cc2c1OCO2 (centres undefined)	-6.692	4.096	14	-13.59
Cc1nccc(-c2cccc(NCC(=O)N3CCNC(=O)C3)c2)n1	13.04	1.283	14.91	-6.25
NCC(=O)N1CCCC1c1nccnc1Nc1ncccn1 (centres undefined)	-	4.796	15.94	-
COCCN1Cc2ccnn2CC(COCc2cccnc2)C1 (centres undefined)	-186.7	7.256	14.47	0.3067
O=C(Nc1cnn(Cc2ccc(Cl)cc2)c1)N1CCCC1CO (centres undefined)	-0.05567	-0.2099	13.27	7.191
CCc1nc(CN2CCN(C(=O)c3cc(C)nn3C)CC2)cs1	-31.55	-3.03	2	1.017
c1cnc(N2CCC3(COCc4cnc(-c5cccnc5)nc43)C2)nc1 (centres undefined)	-	-7.393	1.504	-
O=C(O)C(F)(F)F.[H][C@@]12CN(C(=O)C3CCOC3)C[C@]1([H])C(=O)N(Cc1ccncc1)C2 (some centres undefined)	-10.99	-	-	-2.24
O=C(O)C(F)(F)F.O=C(O)C(F)(F)F.[H][C@@]12CCN(Cc3ccsc3)C[C@]1([H])[C@@H](CN(C)Cc1ccco1)OC2	-52.22	-	-	6.209
[H][C@@]12CCN(C(=O)c3cnn(C)c3)[C@@]1([H])CCN2c1cccc(C)n1	-38	-	-	-0.5682
C1CC(CN2CCOCC3(CCN(C4CCOCC4)C3)C2)CCO1 (centres undefined)	14.07	4.203	23.53	5.403
CC(C)C1CN(C(=O)c2ccncc2)CCS1 (centres undefined)	-25.01	2.852	13.98	5.68
O=C(c1ccc2c(c1)OCCCO2)N1CCCCC1C1OCCO1 (centres undefined)	8.24	5.107	7.895	-2.941
CCCN1CCCCCC1Cc1c(C(=O)NC)sc2ccccc12 (centres undefined)	22.05	-2.931	20.29	8.188
[H][C@]12CC[C@]([H])(CN(C3CCOCC3)C1)N(Cc1ccc(N(C)C)nc1)C2	-112.1	-	-	4.759
CCc1nn(C)c2[nH]nc(NC(=O)c3cccnc3OCC(C)C)c12	-31.55	5.156	19.75	2.753
CC(CNC(=O)N1CCN(c2cnccn2)CC1)Cc1cccs1 (centres undefined)	12.8	5.407	9.615	-7.367
Cc1nn(C)cc1C(=O)N1C[C@H]2CC[C@@H]1CN(S(=O)(=O)N(C)C)C2	-	6.941	6.796	-
CCN(Cc1ccco1)C(=O)c1cc(OC)c2c(c1)OCCO2	34.74	-0.2205	2.857	-0.7541
NC(=O)NCC(=O)N1CCCC(c2nccn2Cc2ccncc2)C1 (centres undefined)	-41.68	-0.8501	14.52	-19.23
Cc1nc(CN2C[C@@H]3COC[C@]3(COCC(=O)N(C)C)C2)cs1	-	1.736	8.333	-
CCC(C)(NCC(=O)OC)c1nccs1 (centres undefined)	-18.63	0.01191	0	1.825
CN(CC(O)C(F)(F)F)C(=O)Nc1cccc(N2CCCC2)c1 (centres undefined)	-11.2	1.387	2.073	3.328
COc1cccc(CN2C[C@H]3CCNCC[C@H]3S2(=O)=O)c1	-	-2.389	-5.263	-
Cc1ccc(C(=O)N2CCN(CCc3ccccc3)CC2)c(=O)[nH]1	4.367	2.055	15.74	-43.74
O=C(Cc1ccccn1)N1CCN(CC2CC2)c2ncccc2C1	19.41	5.136	21.17	-1.276
OC1CCN(Cc2cc3c(cc2Br)OCCO3)CC1	-27.3	1.56	12.5	4.129
Cc1c(NCCOCC(F)(F)F)cccc1C(=O)N1CCCC1	-51.16	6.358	10.53	-3.601
CCCc1nnc(N2CCC(N3CCCC(O)C3)CC2)o1 (centres undefined)	-113.4	-10.87	-6.667	-39.53
CCc1ncc2c(n1)CN(C(=O)CNC(=O)C(C)C)C2	-	-2.182	0.8333	-28.41

Once more, the final 4:

{"smiles": "OC1CCN(Cc2cc3c(cc2Br)OCCO3)CC1", "T. brucei": -27.3, "PfKRS1": 1.56, "LiHisRS": 12.5, "Toxoplasma": 4.129}
{"smiles": "Cc1c(NCCOCC(F)(F)F)cccc1C(=O)N1CCCC1", "T. brucei": -51.16, "PfKRS1": 6.358, "LiHisRS": 10.53, "Toxoplasma": -3.601}
{"smiles": "CCCc1nnc(N2CCC(N3CCCC(O)C3)CC2)o1", "stereo": "centres undefined", "T. brucei": -113.4, "PfKRS1": -10.87, "LiHisRS": -6.667, "Toxoplasma": -39.53}
{"smiles": "CCc1ncc2c(n1)CN(C(=O)CNC(=O)C(C)C)C2", "PfKRS1": -2.182, "LiHisRS": 0.8333, "Toxoplasma": -28.41}

Source: ChEMBL document CHEMBL3988442, “University of Dundee, Small-Polar-MMV Screening Library” (2021).